Reference: patent US20090136561A1, “Non-peptidyl agents with pHSP20-like activity, and uses thereof” (Prolexys Pharmaceuticals, Inc., priority 2004, published 2009)
pIC50, pKd: −log10 of the molar value. For part of these data: At least one compound was matched to its structure with a doubt left. Some of these results come from one statement about several compounds together. Non-standard residues stand in square brackets, D forms with d. Residues, ends and D or L forms follow the SMILES beside them. pS = N[C@@H](COP(=O)(O)O)C(=O)O

Tests used:
[1] = tested on: Bovine coronary artery rings; assay: Contraction/dilation of serotonin-treated bovine coronary artery rings; assay type: cell-based; settings: cyclodextrin formulation
Experimental: Bovine coronary artery rings were treated with compositions containing only cyclodextrin or formulations of cyclodextrin in combination with a pHSP20 peptide, compound (m) or compound (n). The contraction of the rings was measured over time after treatment with serotonin and one of the formulations above. Each of the formulations was tested at several concentrations, with the exception of the pHSP20 peptide.

[2] = target: T1, interaction between 14-3-3γ and pHSP20 (Homo sapiens, UniProt P61981); assay: Fluorescence polarization assay of 14-3-3γ / fluorescein-labeled pHSP20 peptide (WLRRApSAP) interaction; assay type: binding; settings: multiple concentrations, FIG. 10
T1 sequence (P61981 1-247): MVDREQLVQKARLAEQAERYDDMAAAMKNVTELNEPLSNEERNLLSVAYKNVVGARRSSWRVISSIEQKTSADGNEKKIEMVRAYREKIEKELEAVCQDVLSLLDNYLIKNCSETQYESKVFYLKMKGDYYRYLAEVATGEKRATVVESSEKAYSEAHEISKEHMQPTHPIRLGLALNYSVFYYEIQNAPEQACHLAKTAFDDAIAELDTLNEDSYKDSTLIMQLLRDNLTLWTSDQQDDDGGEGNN
Experimental: The ability of compounds (a)-(k) to inhibit the interaction between 14-3-3γ and pHSP20 was determined by a fluorescence polarization (FP) assay. […] The initial screen for inhibitors examined approximately 50,000 compounds in the DiverSet library (ChemBridge, San Diego). Initial compound screening was carried out by first mixing peptide and individual compounds followed by addition of protein to a final volume of 15 ul. The final concentrations of each component were: 57.4 nM peptide, 10 uM compound, 5% DMSO, 1.5 uM 14-3-3 gamma, 0.01 M HEPES pH 7.4, 0.15 M NaCl, 3 mM EDTA, 0.005% Tween 20, 10 mM MnCl2, 9.33 mM Tris (7.5), and 0.0093% NaN3.
The ability of compounds (l) and (m) to inhibit the interaction between 14-3-3γ and pHSP20 was determined by a fluorescence polarization (FP) assay as described in Example 4, except that the compound was measured at multiple concentrations.

14-3-3γ (YWHAG) = target: T2, 14-3-3γ (YWHAG) (Homo sapiens, UniProt P61981); assay: Biacore binding of 14-3-3γ (YWHAG) to immobilized peptide, binding constant
T2 sequence (P61981 1-247): T1 sequence (P61981 1-247)

| Structure (SMILES) | time after addition at which the effect began to wear off [1] [min] | pIC50 [2] | pKd (14-3-3γ (YWHAG); E23-YWAG (GST-His tagged), several experiments) | pKd (14-3-3γ (YWHAG); E25-YWHAG (Biotin-His tagged), several experiments, units given in the value) | pKd (14-3-3γ (YWHAG); original pHSP20 peptide sequence and 14-3-3 gamma, Biacore experiment) |
| --- | --- | --- | --- | --- | --- |
| COc1ccc(/C=N/NC(=O)c2cncc(Br)c2)c(OC)c1OC [compound (n)] | 20 to 25 | – | – | – | – |
| O=C(N/N=C/c1ccc(O)c(O)c1O)c1ccncc1 [compound (m)] | 20 to 25 | – | – | – | – |
| CC(C)C[C@H](NC(=O)CNC(=O)[C@@H]1CCCN1C(=O)[C@H](CC(C)C)NC(=O)[C@@H]1CCCN1C(=O)[C@H](C)NC(=O)[C@H](COP(=O)(O)O)NC(=O)[C@H](C)NC(=O)[C@H](CCCNC(=N)N)NC(=O)[C@H](CCCNC(=N)N)NC(=O)[C@H](CC(C)C)NC(=O)[C@@H](N)Cc1c[nH]c2ccccc12)C(=O)N[C@@H](CO)C(=O)N[C@@H](CCCCN)C(=O)O [pHSP20 peptide] (H-WLRRA[pS]APLPGLSK-OH; N-terminus and C-terminus assumed) | – | ~5.70 | 7.30 to 8.30 | 5.89 to 7.60 | ~8.22 |
